Measurements from PMC3245278.
Results are given in words; binding and its absence hold for the method and conditions named. In cells and extracts the contact can be indirect. Some entries that bind do so weakly or less than the wild type.

Amino acid sequences for entries named in this document (tags omitted). A change or cut given only in a name is not applied to a line headed by its entry.
UniProt Q01094: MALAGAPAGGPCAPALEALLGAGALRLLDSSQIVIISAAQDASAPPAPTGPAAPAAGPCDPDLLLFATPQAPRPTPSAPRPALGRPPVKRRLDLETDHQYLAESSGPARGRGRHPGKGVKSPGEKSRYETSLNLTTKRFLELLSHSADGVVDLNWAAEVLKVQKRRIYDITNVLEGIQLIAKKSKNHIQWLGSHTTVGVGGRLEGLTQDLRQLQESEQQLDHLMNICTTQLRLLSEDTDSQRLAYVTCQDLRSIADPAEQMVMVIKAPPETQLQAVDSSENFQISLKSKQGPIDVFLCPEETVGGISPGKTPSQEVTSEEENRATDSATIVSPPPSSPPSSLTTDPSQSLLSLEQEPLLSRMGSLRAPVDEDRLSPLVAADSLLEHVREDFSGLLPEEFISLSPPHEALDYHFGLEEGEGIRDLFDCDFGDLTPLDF
UniProt P03372: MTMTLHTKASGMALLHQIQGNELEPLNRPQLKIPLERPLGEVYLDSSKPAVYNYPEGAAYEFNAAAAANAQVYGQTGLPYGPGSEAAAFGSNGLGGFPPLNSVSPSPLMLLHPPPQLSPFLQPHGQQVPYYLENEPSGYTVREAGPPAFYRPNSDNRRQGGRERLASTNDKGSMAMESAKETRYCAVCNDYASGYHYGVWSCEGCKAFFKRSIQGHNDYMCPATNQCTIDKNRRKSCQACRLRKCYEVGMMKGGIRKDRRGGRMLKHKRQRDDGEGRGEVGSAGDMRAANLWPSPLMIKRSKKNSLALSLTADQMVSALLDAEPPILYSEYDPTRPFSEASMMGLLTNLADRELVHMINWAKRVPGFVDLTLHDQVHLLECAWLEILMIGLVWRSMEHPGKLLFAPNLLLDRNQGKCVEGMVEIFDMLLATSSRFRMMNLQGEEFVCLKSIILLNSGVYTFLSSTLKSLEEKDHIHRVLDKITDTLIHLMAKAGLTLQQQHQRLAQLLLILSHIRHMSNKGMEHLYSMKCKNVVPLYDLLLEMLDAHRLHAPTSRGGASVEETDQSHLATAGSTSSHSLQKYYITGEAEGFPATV

Target: E2F Transcription Factor 1 (human (endogenous in MCF7)) (UniProt Q01094)
Assay: co-IP; endogenous proteins in MCF7 whole cell lysate (NENT buffer, protease inhibitors); 2 mg lysate with 6 µg anti-E2F1 or anti-ERα antibody or normal rabbit IgG overnight at 4°C, protein G/agarose, 3 washes with NENT buffer, western blot

Estrogen receptor alpha (from UniProt P03372 1-595)
binding: binds
